Values of other authors, collected in paper PMC4546427, “Stereoselective Regulation of P-gp Activity by Clausenamide Enantiomers in Caco-2, KB/KBv and Brain Microvessel Endothelial Cells” (PLoS ONE, 2015).

System: P-gp
Details: Caco-2 cells pre-treated with 100 μmol/L; cited from earlier work

SMILES | Efflux of Rh123 and doxorubicin
O=C(O)COCCN1CCN([C@H](c2ccccc2)c2ccc(Cl)cc2)CC1 [R-cetirizine] | significantly enhanced
O=C(O)COCCN1CCN([C@@H](c2ccccc2)c2ccc(Cl)cc2)CC1 [S-cetirizine] | reduced
